According to PubChem BioAssay AID2417 (National Center for Advancing Translational Sciences (NCATS), 2010):
About 4,300 (3.1%) of roughly 140,000 compounds were called active. The shares of active, inactive and inconclusive entries below differ from those in the screen.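 How the source made its calls: active means readout at or below -70, meaning at least 70% loss of cells showing the perinucleolar compartment, a nuclear body marking cancer cells; inconclusive means readout between -30 and a set limit; inactive means the rest.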

Assay: High Content Assay for Compounds that inhibit the Assembly of the Perinucleolar Compartment;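 further: plate controls were DMSO wells for no effect and camptothecin positive control wells for full effect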
Conditions: PC3M PTB-GFP, PNC prevalence imaging, 16 h; at 10 µM; stronger effect = lower value
Outline: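 PC3M cells stably expressing PTB-GFP, 750–1000 cells/well, treated 16 h at 37 °C with compound (23 nl of library stock), in duplicate. After paraformaldehyde fixation and Hoechst stain, imaged at 20x; PNC prevalence scored by image analysis.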

Structure (SMILES) | activity change (PNC), negative = inhibition
O=C(NCC1CCCO1)c1nn2cccnc2c1Cl (stereo not given) | inactive: -9.6%
O=C(O)c1cc(-c2cccc(Cl)c2)nc2nc(N3CCCCC3)sc12 | active: -86.2%
CCCCCCCN=CC1=C(O)CC(c2ccccc2)CC1=O (stereo not given) | inactive: 20.4%
COc1ccc(CCN2C(=O)CC(Sc3ncccc3C(=O)O)C2=O)cc1OC (stereo not given) | inconclusive: -50.4%
Cc1cccc(OCCn2c(=O)n(C)c3ccccc32)c1 | inconclusive: -36.9%
COC(=O)C1=C(C)NC(=O)NC1c1ccc([N+](=O)[O-])o1 (stereo not given) | inconclusive: -47.9%
O=C(/C=C/c1cccs1)NCc1cccnc1 | inactive: -0.603%
CC(C)(C)NC(=O)C(=O)NNC(=O)COc1ccc(Br)cc1 | inconclusive: -72.3%
CNc1nc(SCc2ccc(C)cc2)nc2c1CCCC2 | inactive: 91.5%
COc1cccc(CNC2CCCC2)c1 | inconclusive: -34.6%
CCOc1ccc(C(=O)N/N=C/c2ccccc2[N+](=O)[O-])cc1 | inactive: -14.8%
Cn1cc(Cl)nc1C(O)c1ccccc1 (stereo not given) | inconclusive: -54.5%
CCS(=O)(=O)N1Cc2ccccc2CC1C(=O)Nc1nnc(SCc2ccc(C#N)cc2)s1 (stereo not given) | inconclusive: -77.9%
N#C/C(=C/c1ccc(N2CCCCC2)o1)C(=O)NCCc1c[nH]c2ccccc12 | active: -86.8%
CCOC(=O)c1cc2c(=O)n3ccccc3nc2n(Cc2ccco2)c1=NC(=O)c1cccnc1 | inactive: 17.7%
COc1ccc(CSc2nc(CSC)cc(N3CCOCC3)n2)cc1 | inconclusive: -40%
CSc1nc(C)cc(OCC(=O)n2nc(C)cc2C)n1 | inconclusive: -79.7%
C1=CC2CC1CC2CN1CCN(c2ccccc2)CC1 (stereo not given) | active: -81.4%
O=C(NCc1ccccc1)C(c1ccncc1)N(C(=O)c1csnn1)C1CC1 (stereo not given) | inactive: 44.1%
N#CC1=C(SCC(=O)c2ccc(Cl)cc2)NC2=C(C(=O)CCC2)C1c1ccco1 (stereo not given) | inconclusive: -39.2%
Cc1ccc(C(=O)N/N=C2\CCc3ccccc32)c(C)c1 | inconclusive: -31.2%
COc1ccc(-c2nc(C#N)c(N3CCN(c4cccc(Cl)c4)CC3)o2)cc1OC | inactive: 32.5%
Cc1nn(Cc2ccc(Cl)cc2)c(C)c1NC(=O)C(c1ccccc1)c1ccccc1 | inconclusive: -50.8%

Copied from the list:
For activity change (PNC), negative = inhibition, `CCOC(=O)c1cc2c(=O)n3ccccc3nc2n(Cc2ccco2)c1=NC(=O)c1cccnc1` shows inactive: 17.7%
For activity change (PNC), negative = inhibition, `CSc1nc(C)cc(OCC(=O)n2nc(C)cc2C)n1` shows inconclusive: -79.7%

Next compounds follow.

Structure (SMILES) | activity change (PNC), negative = inhibition
c1csc(C(c2nnnn2C2CCCCC2)N2CCCC3(CCCCC3)C2)c1 (stereo not given) | inconclusive: -53.1%
COc1cccc(C2=CC(c3ccc(N(C)C)cc3)n3ncnc3N2)c1 (stereo not given) | inconclusive: -42.1%
CCN(CC)CCN1C(=O)C(O)=C(C(=O)c2cccs2)C1c1ccc(C)o1 (stereo not given) | inconclusive: -60.1%
O=[N+]([O-])c1cccc(-c2nnc(C34CC5CC(CC(C5)C3)C4)o2)c1 | inconclusive: -47.9%
Cc1c(NC(=O)N2CCCCCC2)c(=O)n(-c2ccccc2)n1C | inconclusive: -33.6%
O=C(NCc1cccnc1)NC(C(F)(F)F)C(F)(F)F | inconclusive: -37.9%
COc1cc(C(=O)Oc2cccc(C=O)c2)cc(OC)c1OC | inactive: 21.4%
Cc1cccc(OCC(=O)N2CCC(c3ccccc3)C2)c1 (stereo not given) | inconclusive: -67.4%
N#CCC(=O)N/N=C/c1ccc(Sc2nc3ccccc3s2)o1 | inactive: 58.8%
COc1cccc(C2CC(c3cccc(OC)c3)n3nc(N)nc3N2)c1 (stereo not given) | inconclusive: -60.6%
Cc1ccc(S(=O)(=O)Cn2nnnc2C(CC(C)C)N2CCN(C(=O)c3ccco3)CC2)cc1 (stereo not given) | active: -113%
CC(=O)c1ccc(N(C(=O)Cn2nnc3ccccc32)C(C(=O)NC2CCCCC2)c2cn(C)nc2C)cc1 (stereo not given) | inconclusive: -46.2%
O=C(CSc1ncc(C(F)(F)F)cc1Cl)N1CCN(S(=O)(=O)c2ccc3ccccc3c2)CC1 | inconclusive: -53.7%
Cc1nc2oc3c(NCc4ccccn4)ncnc3c2c2c1COC(C)(C)C2 | inconclusive: -56.6%
COc1ccccc1CNS(=O)(=O)c1cc(C)ccc1OC | inconclusive: -57.3%
CCN(CC)C(=O)c1ccc2c(c1[N+](=O)[O-])C(=O)c1ccccc1C2=O | active: -81.8%
COc1ccc(-c2[nH]ncc2/C=N/NC(=O)c2cc(Br)ccc2O)c(OC)c1 | inconclusive: -32.9%
O=C(Cn1nnc2ccccc21)C1CC1 | inconclusive: -76.4%
CC(C)/C=N/NC(=O)c1cccc(N2CCCC2=O)c1 | inconclusive: -56.3%
CC1=C(OC(=O)c2ccc(Br)cc2)C(C)(C)C(c2ccccc2)OC1=O (stereo not given) | inconclusive: -45.8%
COc1ccc(C(=O)SC2=NCCS2)cc1OC | inconclusive: -64.5%
Cc1cc(=O)n2nc(N3CCC(C(=O)NC(C)c4ccccc4)CC3)sc2n1 (stereo not given) | inconclusive: -34.9%
